Measurements taken from US20240336686A1.
Results are given in words; binding and its absence hold for the method and conditions named. Some entries that bind do so weakly or less than the wild type.

The chains behind the UniProt entries cited, without tags or fusion partners. Where a name states a change or a piece, a line headed by the entry shows the natural chain unless it says otherwise. A line that says so, or that is headed by a name, gives the form on record, which may keep a tag or linker. Residues count along the entry.
UniProt P78324: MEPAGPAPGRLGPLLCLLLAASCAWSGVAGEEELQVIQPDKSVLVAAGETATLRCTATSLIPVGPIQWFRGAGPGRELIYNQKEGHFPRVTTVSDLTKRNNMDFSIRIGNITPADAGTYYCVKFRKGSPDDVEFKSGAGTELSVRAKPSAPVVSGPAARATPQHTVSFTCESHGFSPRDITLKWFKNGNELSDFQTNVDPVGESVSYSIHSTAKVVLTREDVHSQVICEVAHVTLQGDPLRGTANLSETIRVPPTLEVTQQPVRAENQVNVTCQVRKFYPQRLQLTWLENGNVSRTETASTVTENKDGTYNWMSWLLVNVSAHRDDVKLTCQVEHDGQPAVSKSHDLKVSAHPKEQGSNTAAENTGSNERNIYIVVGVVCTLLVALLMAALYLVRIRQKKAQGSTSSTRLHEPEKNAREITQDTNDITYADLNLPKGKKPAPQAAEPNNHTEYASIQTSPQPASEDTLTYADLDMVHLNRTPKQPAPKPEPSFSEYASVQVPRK
human SIRPα v1 on CHOK1 cells: residues 31-504 of P78324
His tagged human SIRPα v1 ECD: residues 31-373 of P78324

Tests used:
[1] = target: human SIRPα v1 on CHOK1 cells (human) (UniProt P78324); test: FACS; CHOK1 or 293F cells stably expressing human SIRPα v1
[2] = target: His tagged human SIRPα v1 ECD (human) (UniProt P78324); test: HDX-MS

- binding [1]: binds
- binding [2]: binds
B1: Reference anti-SIRPα antibody hu1H9G4 (antibody, human IgG4, V domains shown)
VH: QVQLVQSGAEVKKPGASVKVSCKASGYTFTSYWITWVKQAPGQGLEWIGDIYPGSGSTNHIEKFKSKATLTVDTSISTAYMELSRLRSDDTAVYYCATGYGSSYGYFDYWGQGTLVTVSS
VL: DIQMTQSPSSLSASVGDRVTITCRASENIYSYLAWYQQKPGKAPKLLIYTAKTLAEGVPSRFSGSGSGTDFTLTISSLQPEDFATYYCQHQYGPPFTFGQGTKLELK
